# According to the supplement of paper PMC8728848:
# Some of the results follow.
# B1: YghJ (Escherichia coli), E3PJ90 (protein)
# chain: MNKKFKYKKSLLAAILSATLLAGCDGGGSGSSSDTPPVDSGTGSLPEVKPDPTPNPEPTPEPTPDPEPTPEPIPDPEPTPEPEPEPVPTKTGYLTLGGSQRVTGATCNGESSDGFTFKPGEDVTCVAGNTTIATFNTQSEAARSLRAVEKVSFSLEDAQELAGSDDKKSNAVSLVTSSNSCPANTEQVCLTFSSVIESKRFDSLYKQIDLAPEEFKKLVNEEVENNAATDKAPSTHTSPVVPVTTPGTKPDLNASFVSANAEQFYQYQPTEIILSEGRLVDSQGYGVAGVNYYTNSGRGVTGENGEFSFSWGEAISFGIDTFELGSVRGNKSTIALTELGDEVRGANIDQLIHRYSTTGQNNTRVVPDDVRKVFAEYPNVINEIINLSLSNGATLGEGEQVVNLPNEFIEQFNTGQAKEIDTAICAKTDGCNEARWFSLTTRNVNDGQIQGVINKLWGVDTNYKSVSKFHVFHDSTNFYGSTGNARGQAVVNISNAAFPILMARNDKNYWLAFGEKRAWDKNELAYITEAPSIVRPENVTRETASFNLPFISLGQVGDGKLMVIGNPHYNSILRCPNGYSWNGGVNKDGQCTLNSDPDDMKNFMENVLRYLSNDRWLPDAKSSMTVGTNLETVYFKKHGQVLGNSAPFAFHKDFTGITVKPMTSYGNLNPDEVPLLILNGFEYVTQWGSDPYSIPLRADTSKPKLTQQDVTDLIAYMNKGGSVLIMENVMSNLKEESASGFVRLLDAAGLSMALNKSVVNNDPQGYPDRVRQRRSTPIWVYERYPAVDGKPPYTIDDTTKEVIWKYQQENKPDDKPKLEVASWQEEVEGKQVTQFAFIDEADHKTPESLAAAKQRILDAFPGLEVCKDSDYHYEVNCLEYRPGTDVPVTGGMYVPQYTQLDLSADTAKAMLQAADLGTNIQRLYQHELYFRTNGRQGERLNSVDLERLYQNMSVWLWNETKYRYEEGKEDELGFKTFTEFLNCYTNNAYVGTQCSAELKKSLIDNKMIYGEESSKAGMMNPSYPLNYMEKPLTRLMLGRSWWDLNIKVDVEKYPGVVNTNGETVTQNINLYSAPTKWFAGNMQSTGLWAPAQQEVSIESKSTVPVTVTVALADDLTGREKHEVSLNRPPRVTKTYDLKANDKVTFKVPYGGLIYIKGDSKEVQSADFTFTGVVKAPFYKDGKWQHDLNSPAPLGELESASFVYTTPKKNLNASNYTGGLEQFANDLDTFASSMNDFYGRDSEDGKHRMFTYKNLPGHKHRFANDVQISIGDAHSGYPVMNSSFSPNSTTLPTTPLNDWLIWHEVGHNAAETPLTVPGATEVANNVLALYMQDRYLGKMNRVADDITVAPEYLEESNGQAWARGGAGDRLLMYAQLKEWAEKNFDIKKWYPDGTPLPEFYSEREGMKGWNLFQLMHRKARGDEVSNDKFGGKNYCAESNGNAADTLMLCASWVAQTDLSEFFKKWNPGANAYQLPGASEMSFEGGVSQSAYNTLASLDLPKPEQGPETINQVTEHKMSAE
# Experiments:
# Experiment in all cases: glycan array binding signal (z-score within array); higher = stronger binding
# Details in all cases: glycan notation: IUPAC condensed, linker removed
# GlcNAc(b1-3)Man = target: GlcNAc(b1-3)Man
# Method in brief: (§1)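 Arrays were curated from the Consortium for Functional Glycomics database, 3228 in total, and kept only where the protein sequence was available. Binding is expressed as a within-array Z-score. This score was averaged across arrays of the same protein sequence at different concentrations or buffers and across linkers, and negative values can be read as non-binding.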
# [1] = target: GlcNAc(b1-3)[GlcNAc(b1-4)][GlcNAc(b1-6)]GlcNAc
# Method in brief: as §1
# [2] = target: GlcNAc(b1-3)[GlcNAc(b1-6)]Gal(b1-4)GlcNAc
# Method in brief: as §1
# [3] = target: GlcNAc(b1-3)[GlcNAc(b1-6)]GalNAc
# Method in brief: as §1
# [4] = target: GlcNAc(b1-4)Gal(b1-4)GlcNAc
# Method in brief: as §1
# GlcNAc(b1-4)GlcNAc = target: GlcNAc(b1-4)GlcNAc
# Method in brief: as §1
# [5] = target: GlcNAc(b1-4)GlcNAc(b1-4)GlcNAc
# Method in brief: as §1
# [6] = target: GlcNAc(b1-4)GlcNAc(b1-4)GlcNAc(b1-4)GlcNAc(b1-4)GlcNAc
# Method in brief: as §1
# [7] = target: GlcNAc(b1-4)GlcNAc(b1-4)GlcNAc(b1-4)GlcNAc(b1-4)GlcNAc(b1-4)GlcNAc
# Method in brief: as §1
# [8] = target: GlcNAc(b1-4)[GlcNAc(b1-6)]GalNAc
# Method in brief: as §1
# [9] = target: GlcNAc(b1-6)Gal(b1-4)GlcNAc
# Method in brief: as §1
# GlcNAc(b1-6)GalNAc = target: GlcNAc(b1-6)GalNAc
# Method in brief: as §1
# [10] = target: GlcNAc6S(b1-3)Gal(b1-4)GlcNAc
# Method in brief: as §1
# Kdn(a2-3)Gal(b1-3)GalNAc = target: Kdn(a2-3)Gal(b1-3)GalNAc
# Method in brief: as §1
# Kdn(a2-3)Gal(b1-3)GlcNAc = target: Kdn(a2-3)Gal(b1-3)GlcNAc
# Method in brief: as §1
# Kdn(a2-3)Gal(b1-4)Glc = target: Kdn(a2-3)Gal(b1-4)Glc
# Method in brief: as §1
# Kdn(a2-3)Gal(b1-4)GlcNAc = target: Kdn(a2-3)Gal(b1-4)GlcNAc
# Method in brief: as §1
# [11] = target: Kdn(a2-3)Gal(b1-4)[Fuc(a1-3)]GlcNAc
# Method in brief: as §1
# Kdn(a2-6)Gal(b1-4)GlcNAc = target: Kdn(a2-6)Gal(b1-4)GlcNAc
# Method in brief: as §1
# [12] = target: Man(a1-2)Man(a1-2)Man(a1-3)Man
# Method in brief: as §1
# [13] = target: Man(a1-2)Man(a1-2)Man(a1-6)[Man(a1-3)]Man
# Method in brief: as §1
# Man(a1-2)Man(a1-3)Man = target: Man(a1-2)Man(a1-3)Man
# Method in brief: as §1
# [14] = target: Man(a1-2)Man(a1-3)[Man(a1-2)Man(a1-6)]Man
# Method in brief: as §1
binder,measurement,setting,value
B1,glycan array binding signal (z-score),GlcNAc(b1-3)Man,-0.568
same,glycan array binding signal (z-score),[1],-1.48
same,glycan array binding signal (z-score),[2],-1.3
same,glycan array binding signal (z-score),[3],0.594
same,glycan array binding signal (z-score),[4],-0.962
same,glycan array binding signal (z-score),GlcNAc(b1-4)GlcNAc,0.19
same,glycan array binding signal (z-score),[5],-1.02
same,glycan array binding signal (z-score),[6],-0.443
same,glycan array binding signal (z-score),[7],-2.26
same,glycan array binding signal (z-score),[8],-0.479
same,glycan array binding signal (z-score),[9],0.015
same,glycan array binding signal (z-score),GlcNAc(b1-6)GalNAc,-1.05
same,glycan array binding signal (z-score),[10],-1.38
same,glycan array binding signal (z-score),Kdn(a2-3)Gal(b1-3)GalNAc,0.314
same,glycan array binding signal (z-score),Kdn(a2-3)Gal(b1-3)GlcNAc,-0.046
same,glycan array binding signal (z-score),Kdn(a2-3)Gal(b1-4)Glc,0.908
same,glycan array binding signal (z-score),Kdn(a2-3)Gal(b1-4)GlcNAc,0.018
same,glycan array binding signal (z-score),[11],-0.222
same,glycan array binding signal (z-score),Kdn(a2-6)Gal(b1-4)GlcNAc,-0.364
same,glycan array binding signal (z-score),[12],0.657
same,glycan array binding signal (z-score),[13],-1.38
same,glycan array binding signal (z-score),Man(a1-2)Man(a1-3)Man,-0.928
same,glycan array binding signal (z-score),[14],-0.82

# Two successive records out of the list so far:
binder,measurement,setting,value
B1,glycan array binding signal (z-score),[10],-1.38
same,glycan array binding signal (z-score),Kdn(a2-3)Gal(b1-3)GalNAc,0.314
